Measured values as given in paper PMC3407958 (Pharmacotherapy, 2010).
Like-named read-outs stand apart in the source and are kept apart here.

Protein sequences, listed by entry. Tags and fused reporters are not part of them.
UniProt P08183, whole entry: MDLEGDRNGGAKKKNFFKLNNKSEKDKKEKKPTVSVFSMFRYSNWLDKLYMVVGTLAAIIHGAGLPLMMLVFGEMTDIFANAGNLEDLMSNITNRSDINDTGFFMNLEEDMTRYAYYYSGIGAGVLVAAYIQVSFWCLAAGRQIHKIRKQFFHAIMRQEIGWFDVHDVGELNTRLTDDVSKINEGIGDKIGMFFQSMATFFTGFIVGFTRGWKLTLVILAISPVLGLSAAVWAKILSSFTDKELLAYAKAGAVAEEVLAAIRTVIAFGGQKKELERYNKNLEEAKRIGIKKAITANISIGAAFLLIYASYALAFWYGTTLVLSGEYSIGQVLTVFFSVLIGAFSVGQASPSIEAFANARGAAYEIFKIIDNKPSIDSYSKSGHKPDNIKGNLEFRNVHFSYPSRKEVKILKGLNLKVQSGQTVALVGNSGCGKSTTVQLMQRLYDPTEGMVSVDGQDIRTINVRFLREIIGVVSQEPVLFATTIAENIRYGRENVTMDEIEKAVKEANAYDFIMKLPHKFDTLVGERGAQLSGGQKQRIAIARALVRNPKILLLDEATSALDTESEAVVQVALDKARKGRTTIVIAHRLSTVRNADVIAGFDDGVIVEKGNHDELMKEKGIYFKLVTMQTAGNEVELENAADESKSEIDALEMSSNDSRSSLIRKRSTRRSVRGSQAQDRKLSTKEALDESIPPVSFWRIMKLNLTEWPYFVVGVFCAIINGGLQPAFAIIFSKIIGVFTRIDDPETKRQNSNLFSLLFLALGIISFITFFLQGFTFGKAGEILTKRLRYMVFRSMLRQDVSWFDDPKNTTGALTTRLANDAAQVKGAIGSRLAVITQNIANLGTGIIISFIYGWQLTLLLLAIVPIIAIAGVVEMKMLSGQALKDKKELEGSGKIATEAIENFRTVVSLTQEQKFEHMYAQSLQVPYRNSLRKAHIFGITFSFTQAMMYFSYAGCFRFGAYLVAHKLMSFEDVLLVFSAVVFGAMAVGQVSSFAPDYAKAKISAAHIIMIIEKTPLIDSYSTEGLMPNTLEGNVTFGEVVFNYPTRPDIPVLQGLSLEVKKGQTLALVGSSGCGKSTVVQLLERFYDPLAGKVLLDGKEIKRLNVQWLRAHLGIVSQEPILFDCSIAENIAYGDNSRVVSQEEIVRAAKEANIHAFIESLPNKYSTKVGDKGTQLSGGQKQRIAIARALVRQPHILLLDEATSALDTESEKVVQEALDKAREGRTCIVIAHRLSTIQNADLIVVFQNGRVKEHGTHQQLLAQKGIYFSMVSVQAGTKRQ

Target: P-glycoprotein (P-gp) (Homo sapiens, UniProt P08183)
Format: in vivo, human (healthy volunteers)
Settings: plasma, po, 120 mg, AUC0-∞, fexofenadine 120 mg single oral dose, geometric mean (90% CI)

AUC(0-inf) (Post-Echinacea (28 days, 500 mg three times daily)): 1540 ng·h/mL
AUC(0-inf) (Pre-Echinacea): 1570 ng·h/mL
Compound: CC(C)(C(=O)O)c1ccc(C(O)CCCN2CCC(C(O)(c3ccccc3)c3ccccc3)CC2)cc1 (centres unmarked) [fexofenadine]
